Test results as given in US20090158447A1, “TLR ligand and IL-1 Response-Injured Animal Model” (priority 2004, published 2009).
These are yes or no findings as the source states them, for the method shown. For some assays here: In cells and extracts the contact can be indirect. Some results given as binding are weak or reduced against the parent protein; the word gives no strength.

Sequences of proteins named here, by UniProt entry; tags and fusion partners are left off. Residues count along the entry.
UniProt P25799, residues 1-431: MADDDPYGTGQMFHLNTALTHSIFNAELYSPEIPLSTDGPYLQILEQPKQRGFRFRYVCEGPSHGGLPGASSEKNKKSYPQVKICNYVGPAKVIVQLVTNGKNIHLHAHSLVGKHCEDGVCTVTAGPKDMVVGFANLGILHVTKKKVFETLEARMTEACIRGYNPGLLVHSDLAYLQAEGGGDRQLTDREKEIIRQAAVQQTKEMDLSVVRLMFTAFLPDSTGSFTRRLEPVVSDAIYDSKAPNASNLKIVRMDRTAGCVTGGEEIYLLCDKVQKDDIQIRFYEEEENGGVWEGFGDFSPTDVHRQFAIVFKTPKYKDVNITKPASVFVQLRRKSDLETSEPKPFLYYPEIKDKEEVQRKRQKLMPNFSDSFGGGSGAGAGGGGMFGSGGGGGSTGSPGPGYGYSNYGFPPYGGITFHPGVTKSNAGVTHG

Legend:
[1] = target: p50 subunit of NF-κB (mouse) (UniProt P25799); assay: summary of the filing's own immunoprecipitation finding
[2] = target: p50 subunit of NF-κB (mouse) (UniProt P25799); assay: co-immunoprecipitation from peritoneal macrophage lysates, immunoblot with α-IκB-ζ

B1: IκB-ζ (protein, mouse, UniProt Q9EST8 1-728, looked up)
chain: MIVDKLLDDSRGGEGLLDAAGDCGLMTSPLNLAYFYGASPPSAPGAGDTGYLSAVPSAPGSPGSDSSDFSSTSSVSSCGAVESRPRGGARAERPQVEPHMGVGRQQRGPFQGVRVKNSVKELLLHIRSNKQKASGQPVDEFKTQSVNIEQLTDLKSAVSAVGKRKGPDPLSDGPVCKRPALLPSHFVTSPQTPTPGESMEDVRHSESKLDSSAALLQNIINIKNECNPVSLNTVQVSWMSPTVPQNSPRDQCQDFHGGQAFSPPQKYQPFQVSGSPQMMDQASMYQYSPQTQNMQQPPPLPPQQQHQQNYPHNSPLQFSPYSRMSQSPKYDSNLFDTHEPQFCTGQSFVSLLTGPGEPESLAVPVPAPTSIPPQTETQLQTFSLMPSNACEAVVGVHDVGSHSLGTSLSLQNIMGSPMNTTQLGKSFFQWQVEQEESKLANIPQDQFLARDGDGDTFLHIAVAQGRRALSYVLARKMNALHMLDIKEHNGQSAFQVAVAANQHLIVQDLVNLGAQVNTTDCWGRTPLHVCAEKGHSQVLQAIQKGAVRSNQFVDLEATNYDGLTPLHCAVVAHNAVVHELQRNRQSHSPEVQDLLLRNKSLVDTIKCLIQMGAAVEAKDRKSGRTALHLAAEEANLELIRLFLELPSCLSFVNAKAYNGNTALHVAASLQYRVTQLDAVRLLMRKGADPSTRNLENEQPVHLVPDGPVGEQIRRILKGKSIQQRAPPY
binding [1]: binds | binding [2]: binds
